Source: publication PMC8744458 (Beilstein Journal of Organic Chemistry, 2022)

Test: general procedure: Fmoc solid-phase peptide synthesis; Rink Amide AM; TBTU, HATU
Settings: whole synthesis; for isolated yield: overall, referring to initial resin loading

Substance	isolated yield (scale 50 µmol)	isolated mass (scale 50 µmol)	other results
PEPTIDE1{[ac].E.N.P.E.S.I.L.D.E.H.V.Q.R.V.M.[am]}$$$$V2.0	–	–	isolated yield (scale 100 µmol): 5%; isolated mass (scale 100 µmol): 9.0 mg
PEPTIDE1{[FITC].[bAla].E.N.P.E.[S5].I.L.D.[S5].H.V.Q.R.V.M.[am]}$PEPTIDE1,PEPTIDE1,7:R3-11:R3$$$V2.0	29%	35.0 mg	–
PEPTIDE1{[ac].E.N.P.E.[Trp6].I.L.D.[Phe4].H.V.Q.R.V.M.[am]}$PEPTIDE1,PEPTIDE1,6:R3-10:R3$$$V2.0	4%	3.8 mg	–
PEPTIDE1{[ac].E.N.P.E.W.I.L.D.K.H.V.Q.R.V.M.[am]}$$$$V2.0	–	–	isolated yield (scale 33 µmol): 24%; isolated mass (scale 33 µmol): 17.1 mg
PEPTIDE1{[ac].E.N.P.E.[Trp7].I.L.D.[Phe4].H.V.Q.R.V.M.[am]}$PEPTIDE1,PEPTIDE1,6:R3-10:R3$$$V2.0	3%	3.5 mg	–
PEPTIDE1{[ac].E.N.P.E.[S5].I.L.D.[S5].H.V.Q.R.V.M.[am]}$PEPTIDE1,PEPTIDE1,6:R3-10:R3$$$V2.0	31%	30.6 mg	–
PEPTIDE1{[FITC].[bAla].E.N.P.E.S.I.L.D.E.H.V.Q.R.V.M.[am]}$$$$V2.0	–	–	isolated yield (scale 33 µmol): 55%; isolated mass (scale 33 µmol): 43.3 mg

Strings that start with PEPTIDE1 are HELM notation: dots part the residues, brackets hold end groups and non-standard residues.
